Assay results taken from article doi:10.1101/756429.
Results are given in words; binding and its absence hold for the method and conditions named. Binding seen in cells or lysates may run through a third protein. Binding can be weak; no strength is given.

Molecular target: ArdC mutant protein E229A (plasmid R388)
Experiment: pull-down

B1: PP_0941 (protein, UniProt Q88PA9 1-173)
chain: MVDSNDDAFDGEKSKTQIKRELHALVELGERLTTLKADTLARLPLTDELRKALAEASKHTAHGARKRHMSFVGKLMRVQDLDAIHALLEQMDSSTRQYNERFHSLERWRDRLIDGNDEDLERFVNEYPDTDRQQLRSLVRHAQHEKARNKPPAAARKVFKYIRDLDELQRGLR
Question: How did the binding turn out when B1 was run?
Answer: The binding was “binds”.
